In PMC10902461 one finds binding data, which are given here for one molecule.

The experiment addresses T1, NOX4 (human (endogenous in HEK293)) (UniProt Q9NPH5).
T1 sequence: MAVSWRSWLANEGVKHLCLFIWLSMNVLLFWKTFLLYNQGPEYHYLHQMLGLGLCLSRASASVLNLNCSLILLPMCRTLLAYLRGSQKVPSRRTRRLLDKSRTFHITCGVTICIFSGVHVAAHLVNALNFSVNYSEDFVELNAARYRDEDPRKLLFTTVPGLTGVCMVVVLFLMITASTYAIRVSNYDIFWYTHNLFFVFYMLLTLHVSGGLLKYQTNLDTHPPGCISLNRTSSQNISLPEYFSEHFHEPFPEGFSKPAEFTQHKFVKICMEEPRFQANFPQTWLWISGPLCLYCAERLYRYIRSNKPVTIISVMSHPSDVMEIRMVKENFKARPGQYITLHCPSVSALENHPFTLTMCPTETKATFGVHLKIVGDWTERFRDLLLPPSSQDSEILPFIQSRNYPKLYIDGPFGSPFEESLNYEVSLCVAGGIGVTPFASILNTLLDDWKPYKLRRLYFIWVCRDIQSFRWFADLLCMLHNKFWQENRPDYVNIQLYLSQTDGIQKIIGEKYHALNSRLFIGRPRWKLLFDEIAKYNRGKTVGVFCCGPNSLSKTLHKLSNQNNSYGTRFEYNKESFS
Briefly: co-IP; endogenous NOX4 immunoprecipitated with anti-NOX4 antibody (ab133303) cross linked to protein A magnetic beads from 0.5-1.0 mg lysate of HEK293 cells transfected with human ANGPTL2; 2 h at 4°C; lysis buffer 100 mM NaCl, 50 mM Tris pH 7.5, 50 mM NaF, 1% NP-40; three washes; immunoblot. (In general: Immunoblotting shows a protein as a band on a membrane.)

No constants are given. Whether binding was seen depends on the method and setting. Binding seen in cells or lysates may run through a third protein. Some entries that bind do so weakly or less than the wild type.

B1: Angiopoietin-like 2 (ANGPTL2), human (protein, UniProt Q9UKU9 23-493)
chain: QEDGFEGTEEGSPREFIYLNRYKRAGESQDKCTYTFIVPQQRVTGAICVNSKEPEVLLENRVHKQELELLNNELLKQKRQIETLQQLVEVDGGIVSEVKLLRKESRNMNSRVTQLYMQLLHEIIRKRDNALELSQLENRILNQTADMLQLASKYKDLEHKYQHLATLAHNQSEIIAQLEEHCQRVPSARPVPQPPPAAPPRVYQPPTYNRIINQISTNEIQSDQNLKVLPPPLPTMPTLTSLPSSTDKPSGPWRDCLQALEDGHDTSSIYLVKPENTNRLMQVWCDQRHDPGGWTVIQRRLDGSVNFFRNWETYKQGFGNIDGEYWLGLENIYWLTNQGNYKLLVTMEDWSGRKVFAEYASFRLEPESEYYKLRLGRYHGNAGDSFTWHNGKQFTTLDRDHDVYTGNCAHYQKGGWWYNACAHSNLNGVWYRGGHYRSRYQDGVYWAEFRGGSYSLKKVVMMIRPNPNTFH
As for B1, the binding entry is “binds”.
